In all, about 310,000 compounds went through this assay and about 17,000 (5.5%) were called active. Inconclusive results, whose numbers are uncertain, are shown with a selection of clear calls. Calls come from the whole dose curve; as a rule, active = well fitted inhibition curve with a large enough effect; inconclusive = small, poorly fitted or top-dose-only effect, or effect the other way; inactive = no such curve, though single readings can be large or run the other way. Where the call is inconclusive, the potency comes from a doubtful curve fit.
Target: Nuclear receptor ROR-gamma (Mus musculus) (UniProt P51450)
Test: qHTS for inhibitors of ROR gamma transcriptional activity; note: nearly all actives have a fitted effect of over 60% in size
Conditions: Drosophila S2 Gal4-RORgamma UAS-luciferase reporter, 20 h; activity change, negative = inhibition: at 53.6 µM (top of the series)
Summary of the method: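 Drosophila S2 cells stably expressing Gal4-DBD/mouse RORγ fusion under metallothionein promoter plus UAS-luciferase; compound 1 h, then 700 uM CuSO4 induction for 20 h at ambient temperature; inhibition read as reduced luminescence.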
% is set by controls: 0 for no effect and ±100 for the full control effect; potency is the fitted concentration of half-maximal effect.

Amino acid sequences for entries named in this document (tags omitted). A change or cut given only in a name is not applied to a line headed by its entry.
UniProt P51450: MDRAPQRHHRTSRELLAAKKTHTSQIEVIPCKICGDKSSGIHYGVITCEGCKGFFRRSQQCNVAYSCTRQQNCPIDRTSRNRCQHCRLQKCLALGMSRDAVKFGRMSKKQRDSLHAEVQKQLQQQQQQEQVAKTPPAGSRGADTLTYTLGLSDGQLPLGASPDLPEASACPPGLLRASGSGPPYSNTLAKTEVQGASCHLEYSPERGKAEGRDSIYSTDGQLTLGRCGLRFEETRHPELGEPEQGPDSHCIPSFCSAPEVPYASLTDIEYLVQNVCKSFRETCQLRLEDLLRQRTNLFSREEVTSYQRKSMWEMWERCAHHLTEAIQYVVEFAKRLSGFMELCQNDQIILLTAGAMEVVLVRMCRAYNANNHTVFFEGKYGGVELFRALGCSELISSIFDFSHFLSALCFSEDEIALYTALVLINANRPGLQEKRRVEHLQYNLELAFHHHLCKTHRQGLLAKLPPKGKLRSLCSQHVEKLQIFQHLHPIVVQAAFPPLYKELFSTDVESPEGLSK

| Structure (SMILES) | Potency | activity change, negative = inhibition |
| --- | --- | --- |
| O=C(O)CCN1C(=O)/C(=C\c2cccc(Oc3ccccc3)c2)SC1=S | inconclusive: 20 µM [inhibitor, single point] | – |
| N#CC1=C(N)SC(N)=C(C#N)C1c1cccc(Oc2ccccc2)c1 | inconclusive: 15.8 µM [inhibitor, single point] | – |
| Cc1ccc(Cn2ccc(NC(=O)C3C4CCC(C4)C3C(=O)O)n2)cc1 (configuration not stated) | inconclusive: 6.31 µM [inhibitor, single point] | – |
| O=C(NNC(=O)C1C2C=CC(C2)C1C(=O)O)c1cc(Cl)ccc1O (configuration not stated) | – | inactive: -17.5% |
| Cn1c(N)c(C(=O)COC(=O)c2ccc(S(=O)(=O)N3CCCCC3)cc2)c(=O)n(C)c1=O | inconclusive: 15.8 µM [inhibitor, single point] | – |
| CCC(=O)N/C(N)=N/c1nc2ccccc2o1 | active: 12.6 µM | – |
| CC(=O)OCC1(C)CN(c2ccccc2)NC1=O (configuration not stated) | active: 12.6 µM | – |
| O=C(COC(=O)c1cc([N+](=O)[O-])ccc1NCCO)c1ccccc1 | inconclusive: 10 µM [activator, partial curve] | – |
| COc1cccc2c3c(c(C)nc12)CC(C)O3 (configuration not stated) | inconclusive: 7.94 µM [inhibitor, partial curve] | – |
| COC(=O)C1CSC(C(=O)OC)N1C(=O)CN1CC(C)OC(C)C1 (configuration not stated) | inconclusive: 6.31 µM [inhibitor, single point] | – |
| COc1cc(/C=C/C(=O)c2ccc(C)c([N+](=O)[O-])c2)cc(OC)c1O | inconclusive: 14.1 µM [inhibitor, single point] | – |
| CC1CCCCN1S(=O)(=O)c1ccc(C(=O)Nc2nnc(C3=COCCO3)o2)cc1 (configuration not stated) | active: 0.891 µM | – |
| O=C(c1ccc([N+](=O)[O-])cc1)n1nc(-c2ccccc2)nc1NCc1ccc(F)cc1 | inconclusive: 7.08 µM [activator, partial curve] | – |
| CCOC(=O)Cc1nn(Cc2nc(-c3ccc(C)cc3)cs2)c(=O)c2ccccc12 | inconclusive: 1.78 µM [activator, full curve] | – |
| Cc1ccc(NS(=O)(=O)c2cc3c4c(cccc4c2)C(=O)NC3=O)cc1C | inconclusive: 2.82 µM [inhibitor, single point] | – |
| CCC1CN(C(=O)Nc2cccc(C)c2)c2cc(C)ccc2O1 (configuration not stated) | – | inactive: 21.1% |
| NC(=O)[C@H]1CCCN1C(=O)[C@H](Cc1cnc[nH]1)NC(=O)[C@@H]1CCC(=O)N1 | – | inactive: 4.69% |
| O=C(Cc1ccc(Cl)cc1)Nc1ncc([N+](=O)[O-])s1 | inconclusive: 3.16 µM [activator, single point] | – |
| N#Cc1c(NC(=O)CCC(=O)O)sc2c1CCCC2 | – | inactive: 16.9% |
| Cc1ccc(OCc2ccc(Br)cc2)c([N+](=O)[O-])n1 | inconclusive: 3.98 µM [activator, partial curve] | – |
| COc1cccc(C(=O)Nc2nc3ccccc3[nH]2)c1 | active: 3.98 µM | – |
| CCNC(=O)c1ccc(CSc2nc3ccccc3s2)cc1 | inconclusive: 20 µM [inhibitor, single point] | – |
| Cc1nn(-c2nc3ccccc3[nH]2)c(=O)c2ccccc12 | active: 0.178 µM | – |
| CC(=O)Nc1cccc(NC(=O)CSc2ncc(-c3ccc(Cl)cc3)n2Cc2ccco2)c1 | inconclusive: 35.5 µM [inhibitor, single point] | – |

| Structure (SMILES) | Potency | activity change, negative = inhibition |
| --- | --- | --- |
| O=C(OCC(=O)N1CCN(c2ccccc2)CC1)c1ccccn1 | – | inactive: 1.73% |
| CCCCC1=CC2=C(c3ccco3)C(=O)C(C)(OC(=O)c3ccc(OC)cc3)C(=O)C2=CN1CCc1ccccn1 (configuration not stated) | – | inactive: 15.2% |
| O=C(Nc1nccs1)c1ccc(-c2ccc(F)cc2)o1 | inconclusive: 17.8 µM [inhibitor, single point] | – |
| Cc1cccc(N(C)S(=O)(=O)c2ccc(-c3cc(C)no3)s2)c1 | – | inactive: 13% |
| CCC1CCCCN1S(=O)(=O)c1ccc(C(=O)Nc2nnc(C3=COCCO3)o2)cc1 (configuration not stated) | active: 0.891 µM | – |
| COC(=O)c1ccccc1NC(=S)NC(=O)COc1ccccc1 | active: 5.62 µM | – |
| CC[N+](CC)(CC#Cc1ccccc1)CC(=O)c1ccc(Cl)cc1 | – | inactive: -4.89% |
| Fc1ccc(CN2CCCN(C(=S)Nc3ccc(F)cc3)CC2)cc1 | – | inactive: -23.3% |
| COC(=O)c1cc(S(=O)(=O)Nc2cc(OC)cc(OC)c2)c[nH]1 | – | inactive: 3.9% |
| O=C1c2ccccc2NC2(CCCCC2)N1c1ccc(O)cc1 | inconclusive: 10 µM [activator, partial curve] | – |
| COCC(C)n1c(-c2ccc3c(c2)NC(=O)CO3)csc1=Nc1ccc(OC(F)F)cc1 (configuration not stated) | inconclusive: 12.6 µM [inhibitor, single point] | – |
| COc1cc2cc(/C=C/C(=O)c3ccco3)c(Cl)nc2cc1OC | inconclusive: 12.6 µM [inhibitor, single point] | – |
| Cc1cc(CNC(=O)c2ccc(C)c([N+](=O)[O-])c2)c2ccccc2n1 | inconclusive: 35.5 µM [inhibitor, single point] | – |
| O=C(Nc1ccc2c(c1)OCCO2)NC1CCCCC1 | inconclusive: 12.6 µM [inhibitor, single point] | – |
| CCOC(=O)c1sc(-c2ccccc2)cc1NC(=O)CSc1nnnn1C | inconclusive: 8.91 µM [activator, partial curve] | – |
| CCOC(=O)N1CCC(NC(=O)CCc2ccccc2)CC1 | inconclusive: 3.55 µM [inhibitor, single point] | – |
| CC1(C)CC2CC(C)(CN2S(=O)(=O)c2ccc(C(=O)Nc3cc(S(=O)(=O)N4CCOCC4)ccc3Cl)cc2)C1 (configuration not stated) | inconclusive: 10 µM [activator, partial curve] | – |
| COC(=O)c1cnc(SC)nc1C | inconclusive: 0.141 µM [activator, full curve, poor fit] | – |
| CC(C)NC(=O)N1CCC2(CC1)CCN(C(=O)c1ccco1)CC2 | – | inactive: -26.6% |
| O=C(Nc1ccccc1)C1=C[C@@H](c2coc3ccccc3c2=O)C[C@@H](OCc2ccc(CO)cc2)O1 | – | inactive: 27.8% |
| Cc1ccc(C(=O)N2CCCC2)cc1S(=O)(=O)Nc1cccc(C)c1C | – | inactive: 16.1% |
| CCc1nc(SCc2ccc(OC)c(Br)c2)n[nH]1 | inconclusive: 11.2 µM [activator, partial curve] | – |
| COc1ccc(OC2C(=O)N(c3cc(C)ccc3C)C2c2ccc(OC)c(OC)c2)cc1 (configuration not stated) | – | inactive: -7.19% |

An excerpt of these results, with tabs.
Structure (SMILES)	Potency	activity change, negative = inhibition
Fc1ccc(CN2CCCN(C(=S)Nc3ccc(F)cc3)CC2)cc1	–	inactive: -23.3%
COC(=O)c1cc(S(=O)(=O)Nc2cc(OC)cc(OC)c2)c[nH]1	–	inactive: 3.9%
O=C1c2ccccc2NC2(CCCCC2)N1c1ccc(O)cc1	inconclusive: 10 µM [activator, partial curve]	–
COCC(C)n1c(-c2ccc3c(c2)NC(=O)CO3)csc1=Nc1ccc(OC(F)F)cc1 (configuration not stated)	inconclusive: 12.6 µM [inhibitor, single point]	–
COc1cc2cc(/C=C/C(=O)c3ccco3)c(Cl)nc2cc1OC	inconclusive: 12.6 µM [inhibitor, single point]	–
Cc1cc(CNC(=O)c2ccc(C)c([N+](=O)[O-])c2)c2ccccc2n1	inconclusive: 35.5 µM [inhibitor, single point]	–
O=C(Nc1ccc2c(c1)OCCO2)NC1CCCCC1	inconclusive: 12.6 µM [inhibitor, single point]	–
CCOC(=O)c1sc(-c2ccccc2)cc1NC(=O)CSc1nnnn1C	inconclusive: 8.91 µM [activator, partial curve]	–
CCOC(=O)N1CCC(NC(=O)CCc2ccccc2)CC1	inconclusive: 3.55 µM [inhibitor, single point]	–
CC1(C)CC2CC(C)(CN2S(=O)(=O)c2ccc(C(=O)Nc3cc(S(=O)(=O)N4CCOCC4)ccc3Cl)cc2)C1 (configuration not stated)	inconclusive: 10 µM [activator, partial curve]	–
